This is an account of results in the supplement of paper PMC8426693.

Structures are written as SMILES. Some of the results follow. Repeats are few or missing, and single values can be far off.

The subject of the first test is SARS-CoV-2 3_SL1+2 RNA. Description: waterLOGSY factor (bound vs free ligand) (ratio); higher = stronger binding. The conditions noted are these: RNA concentration 10 µM; fragment concentration 200 µM; 293 K.
`NC(=O)c1cc(N2CCCC2)ccn1`: the waterLOGSY factor came out at 1.31.
As to `Cc1nccc(N2CCC(N)CC2)n1`, the waterLOGSY factor turned out to be 1.43.
As for `c1coc(CNc2nc3ccccc3[nH]2)c1`, the waterLOGSY factor was determined as 1.25.
As to `CCNC1CCN(c2ccncc2)CC1`, the waterLOGSY factor turned out to be 1.88.
Take `Cc1occc1C(=O)Nc1ccncc1`: the waterLOGSY factor is 1.51.
On to `OCc1cn(-c2ccc(Cl)c(Cl)c2)nn1`, for which the waterLOGSY factor was 4.26.
As for `NC(=O)c1ccnc(NC2CC=CC2)c1`, the waterLOGSY factor is 1.22.
As to `CC(=O)c1ccc(NC(=O)CN2CCCC2)cc1`, the waterLOGSY factor stood at 1.2.
Turning to `CNCc1ccc(C(F)(F)F)cc1`, the waterLOGSY factor is 0.74.

In a further test the test system is SARS-CoV-2 3_SL2 RNA. Described as above. The conditions noted are these: RNA concentration 10 µM; fragment concentration 200 µM; 293 K.
`CN(C)c1ccc(C(=O)Nc2ccncc2)cc1`: the waterLOGSY factor came out at 0.843.
As for `Cc1nccc(N2CCC(N)CC2)n1`, the waterLOGSY factor amounted to 0.728.
Take `CCNC1CCN(c2ccncc2)CC1`: the waterLOGSY factor turned out to be 0.96.
The same measure, in the same setting: the same measure for `Nc1nccc(-c2ccc(Cl)cc2)n1`: 1.78; for `OCc1cn(-c2ccc(Cl)c(Cl)c2)nn1`: 18.2.
As for `CC(=O)c1ccc(NC(=O)CN2CCCC2)cc1`, the waterLOGSY factor amounted to 0.523.

The subject of a further test is SARS-CoV-2 3_SL3base RNA. Described as above. Conditions: RNA concentration 10 µM; fragment concentration 200 µM; 293 K.
`Cc1sc2ncnc(N(C)C)c2c1C`: the waterLOGSY factor is 1.55.
Consider `NC(=O)c1cc(N2CCCC2)ccn1`, for which the waterLOGSY factor was found to be 1.67.
For `Cc1nccc(N2CCC(N)CC2)n1`, the waterLOGSY factor is 1.35.
Consider `N#Cc1ccc(NC(=O)c2cccs2)cc1`, for which the waterLOGSY factor came out at 1.46.
Take `c1coc(CNc2nc3ccccc3[nH]2)c1`: the waterLOGSY factor turned out to be 1.81.
Consider `CCNC1CCN(c2ccncc2)CC1`, for which the waterLOGSY factor was 1.76.
Same read-out and setting: the result for `Cc1cccc(NC(=O)Nc2nc(C)cs2)c1` reads 5.97.
`Cc1occc1C(=O)Nc1ccncc1`: the waterLOGSY factor worked out at 1.81.
As to `Nc1nccc(-c2ccc(Cl)cc2)n1`, the waterLOGSY factor came to 1.62.
For the compound `COc1ccc2sc(N)nc2c1`, the waterLOGSY factor was 1.5.
Same read-out and setting: the result for `OCc1cn(-c2ccc(Cl)c(Cl)c2)nn1` reads 2.1; that for `CNCC(=O)Nc1cc(C)ccn1`, 1.28.
The same measure, in the same setting: the same measure for `CC(=O)c1ccc(NC(=O)CN2CCCC2)cc1`: 1.38; for `O=C(Nc1ccc2[nH]c(=O)[nH]c2c1)c1ccco1`: 1.87.
The same measure, in the same setting: the result for `COc1ccc(Nc2ncnc3[nH]cnc23)cc1` reads 1.23.
As to `Oc1ccc(CN2CCCC2)c2cccnc12`, the waterLOGSY factor was found to be 1.3.
With `CNC(=O)c1ccccc1NC(=O)c1ccco1`, the waterLOGSY factor was found to be 1.75.
With `O=C(Nc1ccc(O)cc1)c1ccc(Cl)cc1`, the waterLOGSY factor stood at 1.82.
Turning to `c1cc(-c2ccc3c(c2)OCO3)n[nH]1`, the waterLOGSY factor amounted to 1.27.
On the same count and under the same terms, the same measure for `CNCc1ccc(C(F)(F)F)cc1`: 0.97.
The same measure, in the same setting: the same measure for `O=C(Nc1ccc2ncccc2c1)c1ccccc1`: 1.71.
For `Cc1cc(C(=O)Nc2ccc3[nH]ccc3c2)no1`, the waterLOGSY factor amounted to 1.11.
